Assay results as given in PubChem BioAssay (NCATS).
“And” between values parts separate entries of the source, which are not always exact repeats. Identical values can stand only once. Inconclusive results, whose numbers are uncertain, are shown with a selection of clear calls. A potency beside an inconclusive call is a rough fit, not a confirmed value. “Side channel” marks fits to a control or component signal instead of the main read-out. The source made the active and inactive calls. The call rests on the fitted dose curve; in most records, active means well fitted activation curve with a large enough effect in the signal ratio; inconclusive means small, poorly fitted or top-dose-only effect, or effect the other way, or a change in a side signal; inactive means flat fitted curve, though single readings scatter; the % refers to the signal ratio.

Experiment: qHTS assay for small molecule agonists of the antioxidant response element (ARE) signaling pathway (AID 651741); on activation: % of control where 0% means no effect
Details: HepG2 ARE-bla reporter, beta-lactamase FRET ratio, 16 h; activation: at 96 µM (top of the series)
Source text: National Center for Advancing Translational Sciences [NCATS]
NIH Chemical Genomics Center [NCGC]
U.S. Environmental Protection Agency [EPA]
National Institutes of Environmental Health Sciences [NIEHS]
National Toxicology Program [NTP]
Oxidative stress has been implicated in the pathogenesis of a variety of diseases ranging from cancer to neurodegeneration. The antioxidant response element (ARE) signaling pathway plays an important role in the amelioration of oxidative stress. The CellSensor ARE-bla HepG2 cell line (Invitrogen) can be used for analyzing the Nrf2/antioxidant response signaling pathway. Nrf2 (NF-E2-related factor 2) and Nrf1 are transcription factors that bind to AREs and activate these genes. The CellSensor ARE-bla Hep G2 cell line contains a beta-lactamase reporter gene under control of the Antioxidant Response Element (ARE) stably integrated into HepG2 cells. The activation of the report gene under culture conditions can be detected by fluorescence intensity. This cell line can be used to screen chemicals in a 1536-well plate format and to identify agonists that induce oxidative stress.
The ARE-bla cells were dispensed at 2,000 cells/5 ul/well in 1536-well black wall/clear bottom plates using a Multidrop dispenser. After the assay plates were incubated at a 37 C/5% CO2 incubator for 5 hours, 23 nL of compounds dissolved in DMSO, positive controls or DMSO only was transferred to the assay plate by a pin tool. The plates were incubated at 37 C for 16 hours. After 1 uL of LiveBLAzer B/G FRET substrate was added using a Flying Reagent Dispenser, the plates were incubated at room temperature for 2 hours, and fluorescence intensity was measured by an Envision plate reader.
Potency means the concentration at half of the fitted maximal effect.

Row | Compound | activation | Potency
1 | O=S(=O)(O)C(F)(F)C(F)(F)C(F)(F)C(F)(F)C(F)(F)C(F)(F)C(F)(F)C(F)(F)F | inconclusive: 7.82% | 
2 | CNC(=O)Oc1cccc2ccccc12 |  | active: 33.5 µM and active: 17.2 µM
3 | Cc1cc(O)ccc1Cl |  | inconclusive: 66.8 µM [activator, single point]
4 | CCCN(CCC)c1c([N+](=O)[O-])cc(S(N)(=O)=O)cc1[N+](=O)[O-] |  | active: 61.1 µM
5 | CCOC(=O)CC(SP(=S)(OC)OC)C(=O)OCC (stereo not given) |  | active: 48.6 µM
6 | CC1(C)C(C=C(Cl)Cl)C1C(=O)OC(C#N)c1cccc(Oc2ccccc2)c1 (stereo not given) |  | inconclusive: 61.1 µM [activator, partial curve, poor fit]
7 | C=C(C)[C@H]1Cc2c(ccc3c2O[C@@H]2COc4cc(OC)c(OC)cc4[C@@H]2C3=O)O1 |  | inconclusive: 30.6 µM [fluorescent, side channel, partial curve, poor fit]
8 | CCCCCl | inactive: -2.5% | 
9 | Oc1cccc2cccnc12 |  | active: 37.6 µM and active: 66.8 µM
10 | C[C@]12CCC(=O)C=C1CC[C@@H]1[C@@H]2CC[C@]2(C)C(=O)CC[C@@H]12 | inconclusive: 7.93% | inconclusive: 66.8 µM [activator, single point]
11 | [O]=[Cr](=[O])([OH])[O][Cr](=[O])(=[O])[OH] |  | active: 7.5 µM and inconclusive: 8.41 µM [activator, partial curve] and inconclusive: 26.6 µM [fluorescent, side channel, partial curve, poor fit]
12 | C[C@@H]1C[C@@H]([C@H](O)CC2CC(=O)NC(=O)C2)C(=O)[C@@H](C)C1 |  | inconclusive: 48.6 µM [inhibitor, partial curve] and inconclusive: 94.4 µM [inhibitor, partial curve, poor fit] and inconclusive: 33.5 µM [inhibitor, partial curve, poor fit]
13 | C[C@H]1C(=O)O[C@@H]2CCN3CC=C(COC(=O)[C@](C)(O)[C@]1(C)O)[C@H]23 | inactive: 2.43% | 
14 | O=C(O)COc1ccccc1 | inactive: -2.44% | 
15 | O=C1C2CC=CCC2C(=O)N1SC(Cl)(Cl)Cl (stereo not given) |  | inconclusive: 66.8 µM [inhibitor, single point] and inconclusive: 23.7 µM [cytotoxic, side channel, full curve] and inconclusive: 68.6 µM [activator, single point]
16 | COC(C)(C)CCCC(C)C/C=C/C(C)=C/C(=O)OC(C)C (stereo not given) |  | active: 48.6 µM and active: 66.8 µM
17 | Nc1ccc(Cl)cc1N |  | active: 4.22 µM and active: 27.3 µM
18 | COc1cc(OC)c(OC)cc1C=O | inactive: -4.98% | 

Row | Compound | activation | Potency
19 | CCC(=O)O[C@H]1CC[C@H]2[C@@H]3CCC4=CC(=O)CC[C@]4(C)[C@H]3CC[C@]12C | inactive: 13.4% | 
20 | CCOP(=O)(NC(C)C)Oc1ccc(SC)c(C)c1 (stereo not given) |  | inconclusive: 47.3 µM [activator, partial curve] and inconclusive: 61.1 µM [activator, partial curve]
21 | Nc1ccccc1C(=O)O |  | inconclusive: 75 µM [activator, partial curve, poor fit]
22 | c1cc2ccc3cccc4ccc(c1)c2c34 |  | inconclusive: 53.1 µM [activator, partial curve] and inconclusive: 17.2 µM [activator, partial curve, poor fit]
23 | C[C@]12CCC(=O)C(O)=C1CC[C@@H]1[C@@H]2CC[C@]2(C)C(=O)CC[C@@H]12 | inactive: 7.83% | 
24 | Oc1ccc(Cl)cc1 |  | inconclusive: 53.1 µM [activator, single point]
25 | COP(=S)(OC)Oc1cc(Cl)c(Cl)cc1Cl |  | active: 24.3 µM
26 | O=c1n(Cl)c(=O)n(Cl)c(=O)n1Cl |  | inconclusive: 77 µM [activator, single point]
27 | CCCCCCCCC(=O)NCc1ccc(O)c(OC)c1 | inconclusive: 19.4% | 
28 | CC(C)Nc1ccc(Nc2ccccc2)cc1 |  | active: 47.3 µM
29 | CN(C)C(=S)SSC(=S)N(C)C | inconclusive: 0.974% | 
30 | CCOP(=S)(OCC)O/N=C(\C#N)c1ccccc1 |  | inconclusive: 61.1 µM [cytotoxic, side channel, partial curve]
31 | O=C(O)CCCc1ccc(N(CCCl)CCCl)cc1 | inconclusive: 12.4% | inconclusive: 48.6 µM [activator, partial curve]
32 | O=c1[nH]c2ccccc2n1C1CCN(CCCC(c2ccc(F)cc2)c2ccc(F)cc2)CC1 |  | inconclusive: 27.3 µM [cytotoxic, side channel, full curve]
33 | ClC1C(Cl)C(Cl)C(Cl)C(Cl)C1Cl (stereo not given) | inconclusive: 27.2% and inconclusive: 13.2% and inconclusive: 20.4% | 
34 | Oc1c(Br)cc(Br)cc1Br |  | active: 42.2 µM
35 | O=C1c2ccccc2C(=O)c2ccccc21 |  | inconclusive: 27.3 µM [activator, single point]
36 | C=CCOC(Cn1ccnc1)c1ccc(Cl)cc1Cl (stereo not given) | inconclusive: 37.9% and inconclusive: 16.5% | 

Same assay, conditions: HepG2 ARE-bla reporter, beta-lactamase FRET ratio, 16 h; at 96 µM (top of the series)

Row | Compound | activation
37 | CN(C)C(=S)SSC(=S)N(C)C | inactive: 12.3%
38 | ClC1C(Cl)C(Cl)C(Cl)C(Cl)C1Cl (stereo not given) | inactive: 5.75%
